For 1 molecule, binding results are on record in publication PMC3039630.

By UniProt entry, the sequences of proteins in these tests, tags left out. Where a name states a change or a piece, a line headed by the entry shows the natural chain unless it says otherwise.
UniProt Q9H1Z8: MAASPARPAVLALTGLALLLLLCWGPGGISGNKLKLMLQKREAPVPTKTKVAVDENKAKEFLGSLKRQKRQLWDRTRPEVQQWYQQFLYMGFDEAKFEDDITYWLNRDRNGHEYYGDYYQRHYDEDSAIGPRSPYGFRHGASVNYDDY

The target of this experiment is Recombinant purified His-ECRG4 protein (esophageal carcinoma related gene 4) (human) (UniProt Q9H1Z8). Briefly: ELISA; 'binding affinity assay': purified His-ECRG4 coated on 96-well plates (5 ug per well), BSA blocking; whole-cell lysate of EC9706 cells transfected with FLAG-ECRG1 added for 2 h; detection with anti-FLAG or anti-Miz-1 antibody, HRP secondary antibody, absorbance at 490 nm; only the target purified. For orientation: ELISA stands for enzyme-linked immunosorbent assay.

Results are given in words; binding and its absence hold for the method and conditions named.

B1: Miz-1 (protein, UniProt Q13105 1-803)
chain: MDFPQHSQHVLEQLNQQRQLGLLCDCTFVVDGVHFKAHKAVLAACSEYFKMLFVDQKDVVHLDISNAAGLGQVLEFMYTAKLSLSPENVDDVLAVATFLQMQDIITACHALKSLAEPATSPGGNAEALATEGGDKRAKEEKVATSTLSRLEQAGRSTPIGPSRDLKEERGGQAQSAASGAEQTEKADAPREPPPVELKPDPTSGMAAAEAEAALSESSEQEMEVEPARKGEEEQKEQEEQEEEGAGPAEVKEEGSQLENGEAPEENENEESAGTDSGQELGSEARGLRSGTYGDRTESKAYGSVIHKCEDCGKEFTHTGNFKRHIRIHTGEKPFSCRECSKAFSDPAACKAHEKTHSPLKPYGCEECGKSYRLISLLNLHKKRHSGEARYRCEDCGKLFTTSGNLKRHQLVHSGEKPYQCDYCGRSFSDPTSKMRHLETHDTDKEHKCPHCDKKFNQVGNLKAHLKIHIADGPLKCRECGKQFTTSGNLKRHLRIHSGEKPYVCIHCQRQFADPGALQRHVRIHTGEKPCQCVMCGKAFTQASSLIAHVRQHTGEKPYVCERCGKRFVQSSQLANHIRHHDNIRPHKCSVCSKAFVNVGDLSKHIIIHTGEKPYLCDKCGRGFNRVDNLRSHVKTVHQGKAGIKILEPEEGSEVSVVTVDDMVTLATEALAATAVTQLTVVPVGAAVTADETEVLKAEISKAVKQVQEEDPNTHILYACDSCGDKFLDANSLAQHVRIHTAQALVMFQTDADFYQQYGPGGTWPAGQVLQAGELVFRPRDGAEGQPALAETSPTAPECPPPAE
Turning to B1, the binding result is “no binding”.
